The assay is described as follows: IkB Signaling. The note with it: ABC-DLBCL IkBa-CBG/CBR dual luciferase ratio (green luciferase fused to IkBa over red control in OCI-Ly3 lymphoma cells), 4 h. The gist of the method: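 Curves were fitted separately to fusion (green), unfused (red) and ratio luminescence, then classed by r2, magnitude and activity. Cells: OCI-Ly3, 4 h compound plus doxycycline at 37C; 10 uM MG-132 defined full response.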
Setting [1] is: measured here: control luc red channel unless noted.

Some of the results follow. Further columns of the screen follow, without active or inactive calls. The list favours compounds with an active or inconclusive main result. Words in brackets tell the shape of the fitted curve; partial curves, single points and poor fits give uncertain potencies.

The AC50 is the midpoint of the concentration-response curve, whichever way the signal moves.

On to `CCc1ccccc1NC(=O)c1cc2nc(-c3ccc(OC)c(OC)c3)cc(C(F)(F)F)n2n1`, for which, under setting [1], the AC50 was 2 µM [rising, full curve, poor fit].
On to `CCOCCCNC(=O)c1c(NC(=O)c2cc(=O)c3ccccc3o2)sc2c1CCC2`, for which, under setting [1], the AC50 was 15.8 µM [falling, single point].
Still for that read-out and setting: under `COc1ccccc1N1CCN(C(=O)Nc2cn(CC(C)C)c(=O)c3ccccc23)CC1` stands 39.8 µM [falling, single point]; under `Cc1occc1-c1nnc(SCC(=O)Nc2ccc(F)cc2)n1Cc1ccccc1`, 3.16 µM [falling, partial curve].
Still for that read-out and setting: to `CC(C)C(=O)Nc1cccc(C(=O)Nc2nnc(CC(C)(C)C)s2)c1` belongs 39.8 µM [falling, single point].
For `CS(=O)(=O)Nc1cccc(-c2nc(Nc3ccc(F)cc3)c3ccccc3n2)c1`, the AC50 runs as follows: (measured here: IkB-luc green channel) 3.16 µM [falling, partial curve]; (measured here: control luc red channel) 3.98 µM [falling, partial curve].
Take `Cc1ccc(C)c(N2CCN(C(=O)CC3Sc4ccccc4NC3=O)CC2)c1` (configuration not stated): the AC50 under setting [1] was 15.8 µM [falling, partial curve].
The same measure, in the same setting: under `CC(C)c1ccc(NC(=O)Nc2csc3c2CCCC3)cc1` stands 5.01 µM [falling, full curve, poor fit]; under `CCCCN(C)CC(O)Cn1cc(/C=C/C(=O)c2ccc(C)cc2)c2ccccc21` (configuration not stated), 12.6 µM [falling, partial curve]; under `COc1ccc(NC(=O)c2c(NCc3cccs3)sc3c2CCCC3)cc1`, 3.16 µM [falling, partial curve].
Same read-out and setting: under `Cc1cccc(N2CCN(C(=O)C3CCCN(S(=O)(=O)c4ccc5c(c4)oc(=O)n5C)C3)CC2)c1C` (configuration not stated) stands 15.8 µM [falling, partial curve].
For `CCC(C)N1CC(O)=C(c2nc3ccccc3[nH]2)C1=N` (configuration not stated), under setting [1], the AC50 is 31.6 µM [rising, single point] [measured here: IkB-luc green channel].
In the case of `Cc1ccc(-n2ncc(C(=O)NCc3cccs3)c2C2CCN(C(=O)OC(C)(C)C)CC2)cc1`, the AC50 under setting [1] is 31.6 µM [falling, partial curve].
The same measure, in the same setting: under `COc1ccccc1NC(=O)C(C)Sc1nnc2ccc3ccccc3n12` (configuration not stated) stands 0.158 µM [falling, full curve, poor fit]; under `CCc1cccc2c(-c3ccccc3)nc(SCC(=O)Nc3ccccc3OC)nc12`, 10 µM [falling, partial curve]; under `Nc1c(C(=O)NCCN2CCOCC2)c2nc3ccccc3nc2n1CCc1ccccc1F`, 15.8 µM [falling, partial curve].
Same read-out and setting: under `COc1ccc(OCC(=O)N2CCC(c3nc4ccccc4s3)CC2)cc1` stands 15.8 µM [falling, partial curve]; under `O=C(NC1CCCC1)c1ccc(CSc2nc3ccncc3n2Cc2cccc(F)c2)cc1`, 25.1 µM [falling, single point].
In the case of `O=C(OCCCCN1C(=O)c2ccccc2C1=O)c1n[nH]c2ccccc12`, the AC50 under setting [1] was 10 µM [falling, partial curve].
As for `CCn1ccc2cc(S(=O)(=O)N3CCC(C(=O)NCCc4ccccc4Cl)CC3)ccc21`, the AC50 under setting [1] was 10 µM [falling, full curve].
Regarding `CCc1ccc(C(=O)c2cnc3ccc(F)cc3c2S(=O)(=O)c2ccccc2)cc1`, the AC50 under setting [1] is 1.58 µM [falling, partial curve].
Same read-out and setting: under `COc1ccccc1Cn1cc(C(=O)c2ccc(Cl)cc2)c(=O)c2ccccc21` stands 31.6 µM [falling, single point]; under `CCN(CC)C(=O)C1CCCN(c2ncnc3c2cnn3-c2cccc(C)c2)C1` (configuration not stated), 25.1 µM [falling, partial curve].
For `Brc1ccc(-c2csc(/N=C/N3CCOCC3)n2)cc1`, under setting [1], the AC50 is 39.8 µM [falling, single point].
Still for that read-out and setting: to `COc1ccc(C(=O)N(Cc2cc(OC)c(OC)c(OC)c2)c2ccccn2)cc1` belongs 0.0794 µM [falling, full curve, poor fit]; to `O=C(Cn1c(=O)nc(-c2ccccc2)c2ccccc21)NCCc1ccc(Cl)cc1`, 20 µM [falling, single point]; to `CC1Cc2cc(S(=O)(=O)CCC(=O)NCc3ccc(Cl)cc3)ccc2N1C(=O)C1CC1` (configuration not stated), 25.1 µM [falling, single point].
Same read-out and setting: to `COC(=O)c1cc(NS(=O)(=O)c2ccc3c(c2)CCC(=O)N3)cc(C(=O)OC)c1` belongs 12.6 µM [falling, partial curve]; to `Cc1ccc(Cl)cc1NS(=O)(=O)c1ccc2c(c1)NC(=O)CCS2`, 20 µM [falling, single point].
Consider `COc1ccccc1OCCCSc1nc(-c2ccc(C(C)(C)C)cc2)nc2cc(=O)[nH]n12`, for which, under setting [1], the AC50 was 39.8 µM [falling, single point].
`COc1ccccc1CNC(=O)C1CCCN(C(=O)c2cnn(-c3ccc(F)cc3)c2-n2cccc2)C1` (configuration not stated): the AC50 under setting [1] is 15.8 µM [falling, partial curve, poor fit].
Turning to `CCCn1c(CN2CCCCC2CC)nc2c1c(=O)n(C)c(=O)n2C` (configuration not stated), under setting [1], the AC50 was 31.6 µM [rising, partial curve] [measured here: IkB-luc green channel].
Take `Cc1ccc(NC(=O)C(Cc2ccccc2)n2cccc2)cc1` (configuration not stated): the AC50 under setting [1] was 31.6 µM [falling, single point].
`O=C(NC1CCCCC1)N1CCc2[nH]c3ccccc3c2C1`: the AC50 under setting [1] was 10 µM [falling, partial curve].
Consider `COc1ccc(CNC(=O)Cn2ncc3c4ccccc4n(Cc4cccc(Cl)c4)c3c2=O)cc1`, for which, under setting [1], the AC50 was 10 µM [falling, partial curve].
With `OCCN1CCN(CCCN2c3ccccc3Sc3ccc(C(F)(F)F)cc32)CC1`, the AC50 under setting [1] is 5.01 µM [falling, partial curve, poor fit] [measured here: IkB-luc green channel].
Consider `CN1CCc2c(sc3c2C(=O)NC(c2ccc(OC(=O)c4ccccc4)cc2)N3)C1` (configuration not stated), for which, under setting [1], the AC50 is 0.0794 µM [rising, full curve, poor fit].
Regarding `COc1ccc(OC)c(NCc2cccn2-c2nnc(N3CCCCC3)s2)c1`, the AC50 under setting [1] is 15.8 µM [falling, partial curve].
As to `COc1ccc(C)cc1NC(=O)c1ccc2c(=O)n3c(nc2c1)CCCCC3`, the AC50 under setting [1] is 31.6 µM [falling, single point].
On the same count and under the same terms, to `COc1ccc(-c2nnc(SCC(=O)Nc3ccccc3OC)o2)cc1` belongs 2.51 µM [falling, partial curve]; to `Cc1cccc(-c2nc3c4ccccc4nc(N4CCN(c5ccccc5F)CC4)n3n2)c1`, 7.94 µM [rising, partial curve]; to `CCn1cc(C(=O)OCC(=O)OC2CC(C)CCC2C(C)C)c(=O)c2ccc(C)nc21` (configuration not stated), 31.6 µM [falling, single point].
With `Cc1ccc(CNC(=O)NCc2noc3ccc(C)cc23)cc1`, the AC50 under setting [1] is 25.1 µM [falling, single point].
Same read-out and setting: to `Cn1c(=O)c2c(-c3ccc(Cl)cc3)n(Cc3ccc(Cl)cc3)cc2n(C)c1=O` belongs 10 µM [falling, partial curve].
Regarding `CCOc1ccc(C(c2c(O)cc(C)n(CCOC)c2=O)N2CCN(c3ccccc3)CC2)cc1` (configuration not stated), under setting [1], the AC50 is 39.8 µM [falling, single point].
The same measure, in the same setting: under `O=C(CSc1nnc(COc2cccc3ccccc23)o1)N1CCN(C(=O)c2ccco2)CC1` stands 31.6 µM [falling, partial curve]; under `COc1ccc(-c2noc(N3CCC(C(=O)Nc4ccc(F)cc4Cl)CC3)n2)cc1`, 15.8 µM [falling, partial curve].
`CCN(C(=O)CCS(=O)(=O)c1cc2[nH]c(=O)c(=O)[nH]c2cc1C)c1ccccc1`: the half-maximal activity concentration (AC50) under setting [1] is 39.8 µM [falling, single point].
On the same count and under the same terms, under `Cc1cc2oc(=O)cc(CN3CCN(C/C=C/c4ccccc4)CC3)c2cc1O` stands 15.8 µM [falling, partial curve]; under `Cc1ccc2sc(N3CCN(C(=O)CCS(=O)(=O)c4ccc(Cl)cc4)CC3)nc2c1C`, 31.6 µM [rising, single point]; under `O=C(NCCc1ccc(F)cc1)C(=O)NCC(c1cccs1)S(=O)(=O)c1ccc(F)cc1` (configuration not stated), 25.1 µM [falling, single point].
Still for that read-out and setting: to `O=C(Cn1c(=O)c2c(ncn2C2CCCC2)n(Cc2ccccc2)c1=O)N1CCc2ccccc21` belongs 5.01 µM [falling, partial curve]; to `COC(=O)c1c(NC(=O)CCCOc2ccc(C(C)(C)C)cc2)sc2c1C(C(=O)OC)CC2` (configuration not stated), 12.6 µM [falling, partial curve].
Still for that read-out and setting: under `CCn1c(SCC#N)nc2c(c1=O)C1(CCCC1)Cc1ccccc1-2` stands 39.8 µM [falling, single point].
Take `CCCC(=O)N(CCc1ccccc1)Cc1nc2ccccc2c(=O)[nH]1`: the AC50 under setting [1] was 25.1 µM [falling, partial curve].
Still for that read-out and setting: under `COc1ccc(N2CCN(C(=O)CCn3c(=O)[nH]c4cc(OC)c(OC)cc4c3=O)CC2)cc1` stands 10 µM [falling, partial curve].
`CCc1ccc(CNC(=O)C(C)n2ccc3cc(S(=O)(=O)N4CCCCCC4)ccc32)cc1` (configuration not stated): the half-maximal activity concentration (AC50) under setting [1] is 2 µM [falling, partial curve].
For the compound `Cc1cccc(NC(=O)CCS(=O)(=O)c2cccc3nsnc23)c1C`, the AC50 under setting [1] was 12.6 µM [falling, partial curve].
Still for that read-out and setting: under `COc1cccc(C(=O)NCCc2csc(-c3ccc(Cl)cc3)n2)c1` stands 31.6 µM [falling, partial curve].
On the same count and under the same terms, to `COc1ccccc1N1CCN(c2ncnc3onc(-c4ccc(F)cc4)c23)CC1` belongs 2.51 µM [rising, partial curve]; to `COc1ccc(C)cc1NC(=O)CSc1nnc(-c2ccccn2)n1Cc1ccco1`, 398 nM [rising, full curve, poor fit] [measured here: IkB-luc green channel].
